Not every detail of the peptide structures is certain; ends, links or a residue may be inferred. Square brackets hold non-standard residues; d marks the D form. Peptide text beside a SMILES is read from it. PEG3 = NCCOCCOCCOCCC(=O)O
Test system: siRNA duplex
Assay: gel-shift assay of peptide/siRNA complex formation
Assay type: binding
Settings: ethidium bromide staining
Protocol: Gel-shift assays were performed by mixing […] siRNA duplex with the respective peptides in a given molar ratio in water. The complexes were formed for 1 hour at 37° C. and analyzed on a 2.5% agarose gel with ethidium bromide (run: 40 minutes at 125 V). For proteinase K treatment, 1 μl proteinase K was added to a standard reaction as indicated above.
Mechanisms that may explain transfection functionalities of charged peptides such as TAT or protamine include the formation of complexes between positively charged peptides and negatively charged nucleic acids. Such complexes enable peptide-mediated membrane-interacting and/or endosome escape functionalities to transfer the complexed nucleic acids into the cytosol of cells (Law, M. et al. (2008) Biotechnol. Prog. 24, 957-963) In order to address whether the above mechanism may apply to the NTRN-derived peptide as well gel-shift assays were performed (cf. FIG. 8). To this end, siRNA was co-incubated with increasing concentrations of peptide, followed by analyses of their migration pattern via gel electrophoresis.

CC[C@H](C)[C@H](NC(=O)CCOCCOCCOCCNC(=O)[C@@H](N)CS)C(=O)N[C@@H](CCC(N)=O)C(=O)N[C@H](C(=O)N[C@@H](CO)C(=O)N[C@@H](CC(=O)O)C(=O)N[C@@H](CCCCN)C(=O)N[C@H](C(=O)N[C@@H](CCCCN)C(=O)N[C@@H](CCCNC(=N)N)C(=O)N[C@@H](CCCCN)C(=O)N[C@@H](CCSC)C(=O)N[C@@H](CCCNC(=N)N)C(=O)N[C@@H](CCCNC(=N)N)C(=O)N[C@@H](CCCNC(=N)N)C(=O)N[C@@H](CCC(=O)O)C(=O)N[C@@H](CCCCN)C(=O)N[C@@H](CC(=O)O)C(=O)N[C@@H](CCC(N)=O)C(=O)N[C@@H](CCCNC(=N)N)C(=O)N[C@@H](CCCCN)C(=O)N[C@H](C(=O)N1CCC[C@H]1C(=O)N[C@H](C(=O)N[C@@H](Cc1c[nH]cn1)C(=O)N[C@@H](CCCCN)C(=O)N[C@@H](CC(=O)O)C(=O)N[C@@H](CC(=O)O)C(=O)N[C@@H](CC(C)C)C(=O)N[C@@H](CC(C)C)C(=O)N[C@@H](Cc1ccc(O)cc1)C(=O)O)[C@@H](C)CC)[C@@H](C)CC)[C@@H](C)O)[C@@H](C)CC [WNT16] (H-C[PEG3]IQISDKTKRKMRRREKDQRKIPIHKDDLLY-OH)
complex formation with siRNA: clear dose-dependent retardation of the electrophoretic siRNA mobility
